Measured values as given in article PMC11705076.
Results are given in words; binding and its absence hold for the method and conditions named. Binding seen in cells or lysates may run through a third protein. A result given as binding can be weak or reduced; the word gives no strength.

Amino acid sequences for entries named in this document (tags omitted). A change or cut given only in a name is not applied to a line headed by its entry.
UniProt G4MSW4: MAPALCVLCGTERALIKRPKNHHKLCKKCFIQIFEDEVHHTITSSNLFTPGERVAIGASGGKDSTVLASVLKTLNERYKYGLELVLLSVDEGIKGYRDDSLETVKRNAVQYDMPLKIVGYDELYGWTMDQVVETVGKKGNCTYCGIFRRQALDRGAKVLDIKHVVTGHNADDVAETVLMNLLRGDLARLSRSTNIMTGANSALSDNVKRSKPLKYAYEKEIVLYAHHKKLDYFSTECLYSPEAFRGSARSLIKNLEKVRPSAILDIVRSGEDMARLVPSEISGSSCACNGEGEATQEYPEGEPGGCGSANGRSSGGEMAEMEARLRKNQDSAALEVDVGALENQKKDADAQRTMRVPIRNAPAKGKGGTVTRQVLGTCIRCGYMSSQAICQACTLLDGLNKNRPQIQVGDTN
UniProt G4N7I9: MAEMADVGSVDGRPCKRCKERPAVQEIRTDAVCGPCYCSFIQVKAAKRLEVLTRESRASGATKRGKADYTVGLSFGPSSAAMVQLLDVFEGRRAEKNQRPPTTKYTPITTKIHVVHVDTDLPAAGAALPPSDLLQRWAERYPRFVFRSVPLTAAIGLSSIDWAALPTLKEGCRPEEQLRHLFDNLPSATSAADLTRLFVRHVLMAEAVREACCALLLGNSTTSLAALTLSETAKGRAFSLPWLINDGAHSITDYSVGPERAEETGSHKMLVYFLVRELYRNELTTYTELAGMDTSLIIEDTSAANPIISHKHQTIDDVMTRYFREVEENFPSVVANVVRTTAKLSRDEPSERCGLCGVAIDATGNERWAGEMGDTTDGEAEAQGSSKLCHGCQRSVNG

Target: M. oryzae Ncs6 (Ncs6-GFP) (Magnaporthe oryzae) (UniProt G4MSW4)
Test: co-IP

## M. oryzae Ncs2 (Ncs2-3xFlag) (from UniProt G4N7I9)
  binding: binds
